Measurements reported in PubChem BioAssay AID1259308 (NCATS, 2017)
Screen: 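Candidate targets for better recombinant protein yield in mammalian cells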 (primary screen). Cells: human HEK293 embryonic kidney cells stably expressing firefly luciferase (HEK-CMV-Luc2-Hygro). Knock-down reagent: single siRNA against human genes, 0.8 pmol siRNA per well. Time to read-out: 72 h. Detection: 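Reporter luminescence and viable-cell signal on separate replicate plates, given as percent of non-targeting control and median/MAD z-scores, plus per-cell luciferase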. Reading the numbers: total luciferase, z-score and total luciferase, % of control: higher = more reporter protein produced; luciferase per cell, z-score: higher = more reporter output per viable cell; viable cells, % of control: higher = more viable cells. Active means: 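Active when the median/MAD z-score for overall luciferase is greater than 3; a gene was taken forward for validation with new siRNAs if at least two of its three siRNAs passed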. Meaning of the calls: active = raised luciferase; inactive = no rise.
Here is an unselected part of about 59,000 reagents. Of all reagents, about 1,510 (2.6%) are marked active. 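Calls use total luciferase alone and ignore viability, so some active siRNAs may act by altering cell number.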 Unmarked entries are inactive. The numbers tell different reagents against one gene apart.

gene symbol | siRNA no. | total luciferase, z-score | total luciferase, % of control | luciferase per cell, z-score | viable cells, % of control
ETV4 (GeneID 2118) | 1 | 1.27 | 107 | 0.706 | 99.4
ETV4 (GeneID 2118) | 2 | 0.308 | 88 | -0.227 | 104
ETV4 (GeneID 2118) | 3 | 1.09 | 104 | 0.972 | 89.6
FSIP1 (GeneID 161835) | 1 | 0.738 | 96.6 | 0.233 | 102
FSIP1 (GeneID 161835) | 2 | 1.6 | 114 | 2.15 | 72.2
FSIP1 (GeneID 161835) | 3 | -0.0815 | 80.3 | -0.503 | 102
CTC1 (GeneID 80169) | 1 | -0.181 | 78.3 | -0.542 | 101
CTC1 (GeneID 80169) | 2 | 2.82 | 138 | 1.61 | 101
CTC1 (GeneID 80169) | 3 | -0.532 | 71.3 | -1.02 | 104
METTL25B (GeneID 51093) | 1 | 0.494 | 91.7 | -0.249 | 109
METTL25B (GeneID 51093) | 2 | 1.12 | 104 | 0.161 | 112
METTL25B (GeneID 51093) | 3 | 4.9 (active) | 179 | 3.97 | 70.5
KLK15 (GeneID 55554) | 1 | 0.39 | 89.6 | 0.0847 | 98
KLK15 (GeneID 55554) | 2 | -1.21 | 57.8 | -1.76 | 103
KLK15 (GeneID 55554) | 3 | -1.34 | 55.2 | -1.73 | 97.4
TUBA3C-DT (GeneID 101928697) | 1 | -1.53 | 51.5 | -0.00422 | 57.6
TUBA3C-DT (GeneID 101928697) | 2 | 0.08 | 83.5 | 0.291 | 86.4
TUBA3C-DT (GeneID 101928697) | 3 | -1.6 | 50 | -0.169 | 58.4
PADI2 (GeneID 11240) | 1 | 0.266 | 87.2 | 0.356 | 88.7
PADI2 (GeneID 11240) | 2 | -0.488 | 72.2 | -0.568 | 93.7
PADI2 (GeneID 11240) | 3 | -0.63 | 69.4 | -0.615 | 91.1
HTR5A (GeneID 3361) | 1 | -0.107 | 79.8 | 0.547 | 77.2
HTR5A (GeneID 3361) | 2 | -0.726 | 67.4 | -0.654 | 89.5
HTR5A (GeneID 3361) | 3 | 0.87 | 99.2 | 0.773 | 90.4
KERA (GeneID 11081) | 1 | 2.36 | 129 | 1.91 | 87.1
KERA (GeneID 11081) | 2 | -0.557 | 70.8 | -0.0198 | 79.5
KERA (GeneID 11081) | 3 | -1.23 | 57.5 | -1.25 | 89.3
PRICKLE4 (GeneID 29964) | 1 | 0.38 | 89.4 | 0.392 | 90.2
PRICKLE4 (GeneID 29964) | 2 | 0.88 | 99.4 | 1.34 | 78
PRICKLE4 (GeneID 29964) | 3 | -1.34 | 55.2 | -2.11 | 108
YKT6 (GeneID 10652) | 1 | -0.142 | 79.1 | -0.476 | 100
YKT6 (GeneID 10652) | 2 | 2.34 | 128 | 1.81 | 89.1
YKT6 (GeneID 10652) | 3 | -0.416 | 73.6 | -0.417 | 91.8
LINGO1 (GeneID 84894) | 1 | -0.0767 | 80.4 | -0.2 | 94.7
LINGO1 (GeneID 84894) | 2 | 0.543 | 92.7 | 0.834 | 83.2
LINGO1 (GeneID 84894) | 3 | 0.294 | 87.7 | 0.193 | 93.2
DBF4 (GeneID 10926) | 1 | 0.62 | 94.2 | 0.49 | 92.5
DBF4 (GeneID 10926) | 2 | -0.665 | 68.7 | -0.583 | 89.4
DBF4 (GeneID 10926) | 3 | -1.2 | 57.9 | -0.483 | 73.5
ZNF674 (GeneID 641339) | 1 | 0.852 | 98.8 | 0.863 | 88
ZNF674 (GeneID 641339) | 2 | 0.126 | 84.4 | 0.207 | 89.3
ZNF674 (GeneID 641339) | 3 | 1.25 | 107 | 0.913 | 93.8
SLC20A2 (GeneID 6575) | 1 | 0.943 | 101 | 0.658 | 94.6
SLC20A2 (GeneID 6575) | 2 | -1.31 | 55.8 | -2.11 | 109
SLC20A2 (GeneID 6575) | 3 | 0.154 | 85 | -0.244 | 101
H2BC4 (GeneID 8347) | 1 | 0.754 | 96.9 | 0.00683 | 108
H2BC4 (GeneID 8347) | 2 | 0.283 | 87.5 | -0.102 | 100
H2BC4 (GeneID 8347) | 3 | 0.48 | 91.4 | 0.346 | 93.3
DRC4 (GeneID 2622) | 1 | 1.35 | 109 | 1.67 | 78.2
DRC4 (GeneID 2622) | 2 | 0.0701 | 83.3 | 0.481 | 82
DRC4 (GeneID 2622) | 3 | -0.511 | 71.7 | 0.106 | 78
ELK1P1 (GeneID 647102) | 1 | -0.0486 | 80.9 | -0.304 | 98
ELK1P1 (GeneID 647102) | 2 | 1.24 | 107 | 1.05 | 90.3
ELK1P1 (GeneID 647102) | 3 | -0.0908 | 80.1 | 0.0563 | 88.2
C19orf84 (GeneID 147646) | 1 | -3.06 | 21 | -1.18 | 32
C19orf84 (GeneID 147646) | 2 | 0.326 | 88.4 | 0.528 | 85.9
C19orf84 (GeneID 147646) | 3 | -0.1 | 79.9 | -0.342 | 97.7

9 successive records from above, for reference:
gene symbol | siRNA no. | total luciferase, z-score | total luciferase, % of control | luciferase per cell, z-score | viable cells, % of control
PRICKLE4 (GeneID 29964) | 1 | 0.38 | 89.4 | 0.392 | 90.2
PRICKLE4 (GeneID 29964) | 2 | 0.88 | 99.4 | 1.34 | 78
PRICKLE4 (GeneID 29964) | 3 | -1.34 | 55.2 | -2.11 | 108
YKT6 (GeneID 10652) | 1 | -0.142 | 79.1 | -0.476 | 100
YKT6 (GeneID 10652) | 2 | 2.34 | 128 | 1.81 | 89.1
YKT6 (GeneID 10652) | 3 | -0.416 | 73.6 | -0.417 | 91.8
LINGO1 (GeneID 84894) | 1 | -0.0767 | 80.4 | -0.2 | 94.7
LINGO1 (GeneID 84894) | 2 | 0.543 | 92.7 | 0.834 | 83.2
LINGO1 (GeneID 84894) | 3 | 0.294 | 87.7 | 0.193 | 93.2
